# Data from the supplement of paper PMC10398353.
# Counter-ions that a name gives are not always drawn. The list shows a part of the results. This is a noisy data set.
# Test system: Salmonella enterica serovar Typhimurium ST313 D23580
# Assay: normalized bacterial growth (OD600 20 h minus 0 h, interquartile-mean normalized) (fraction of plate interquartile mean); higher = more bacterial growth (less inhibition)
# Settings: LPM (pH 5.8, low phosphate, low Mg2+), concentration: 10 µM, temperature: 37 °C
row,Structure (SMILES),normalized bacterial growth
1,CCN[C@@H]1C[C@H](N)[C@@H](O[C@H]2OC(CN)=CC[C@H]2N)[C@H](O)[C@H]1O[C@H]1OC[C@](C)(O)[C@H](NC)[C@H]1O,1.12
2,"O=C1NC(=O)C(c2ccccc2)(c2ccccc2)N1 [""5,5-Diphenylhydantoin""]",1.3
3,CC(C)(C)NCC(O)COc1cccc2[nH]c(=O)[nH]c12 (centres undefined),1.18
4,COc1c(N2CCNC(C)C2)c(F)cc2c(=O)c(C(=O)O)cn(C3CC3)c12 (centres undefined),0.139
5,N[C@@H](C(=O)O)[C@@H](O)[C@H](O)[C@H](O)CO,0.858
6,O=C(c1ccccc1)c1ccc2n1CCC2C(=O)O (centres undefined) [Ketorolac tris salt],1.09
7,CCOC(=O)[C@@](C)(N)Cc1ccc(O)c(O)c1,0.857
8,OCc1ccccc1O,0.988
9,CNC(=O)[C@H]1O[C@@H](n2cnc3c(NCc4cccc(I)c4)nc(Cl)nc32)[C@H](O)[C@@H]1O [Chloro-IB-MECA],1.21
10,CC1(C)CC2C1CCC1(C)OC2(C)CCC1O (centres undefined),1.03
11,COc1cc(-c2cc(=O)c3c(O)cc(O)cc3o2)ccc1O,1.09
12,Cn1ccc2cc3c(cc21)CCN3C(=O)Nc1cccnc1,0.684
13,O=C(O)CP(=O)(O)O [Phosphonoacetic acid],1.02
14,N#CC(C#N)=C(N)/C(C#N)=C/c1cc(O)c(O)c(O)c1 [Tyrphostin 51],0.897
15,CO/N=C(\C(=O)N[C@@H]1C(=O)N2C(C(=O)OC(C)OC(C)=O)=C(COC(N)=O)CS[C@H]12)c1ccco1 (some centres undefined),1.12
16,CCN(CC)CCCCCCCCOC(=O)c1cc(OC)c(OC)c(OC)c1 [TMB-8 hydrochloride],0.756
17,C[C@@H]1O[C@@H](O[C@@H]2[C@@H](O)[C@H](O)[C@@H](CO)O[C@H]2c2c(O)cc(O)c3c(=O)cc(-c4ccc(O)cc4)oc23)[C@H](O)[C@H](O)[C@H]1O,1.09
18,CNc1ccccc1C(=O)N1CCc2c([nH]c3ccccc23)C1=O,0.857
19,COc1ccc2c(=O)c(CC(=O)O)coc2c1,1.17
20,COc1ccccc1OCC(O)COC(N)=O (centres undefined),1.19
21,Nc1c2c(nc3ccccc13)CCCC2O (centres undefined) [Hydroxytacrine maleate],0.968
22,Cc1cc(N)c2ccccc2[n+]1CCCCCCCCCC[n+]1c(C)cc(N)c2ccccc21 [Dequalinium chloride hydrate],1.01
23,C=CCCCCCCCCC(=O)[O-].C=CCCCCCCCCC(=O)[O-].[Zn+2],1.06
24,COC(=O)Nc1nc2cc([S+]([O-])c3ccccc3)ccc2[nH]1 (centres undefined),1.03
25,O=c1cc(-c2ccccc2)oc2cccc(O)c12,1.16
26,C[C@@H]1C(=O)NC2=Nc3cccc(Cl)c3CN21 [Quazinone],0.893
27,Nc1ccccc1C(=O)CC(N)C(=O)O (centres undefined),0.98

# Part of the list above, set out differently.
row	Structure (SMILES)	normalized bacterial growth
2	O=C1NC(=O)C(c2ccccc2)(c2ccccc2)N1 ["5,5-Diphenylhydantoin"]	1.3
3	CC(C)(C)NCC(O)COc1cccc2[nH]c(=O)[nH]c12 (centres undefined)	1.18
5	N[C@@H](C(=O)O)[C@@H](O)[C@H](O)[C@H](O)CO	0.858
7	CCOC(=O)[C@@](C)(N)Cc1ccc(O)c(O)c1	0.857
9	CNC(=O)[C@H]1O[C@@H](n2cnc3c(NCc4cccc(I)c4)nc(Cl)nc32)[C@H](O)[C@@H]1O [Chloro-IB-MECA]	1.21
13	O=C(O)CP(=O)(O)O [Phosphonoacetic acid]	1.02
18	CNc1ccccc1C(=O)N1CCc2c([nH]c3ccccc23)C1=O	0.857
19	COc1ccc2c(=O)c(CC(=O)O)coc2c1	1.17
20	COc1ccccc1OCC(O)COC(N)=O (centres undefined)	1.19
26	C[C@@H]1C(=O)NC2=Nc3cccc(Cl)c3CN21 [Quazinone]	0.893
27	Nc1ccccc1C(=O)CC(N)C(=O)O (centres undefined)	0.98

# 2 entries from above, set out differently:
row	Structure (SMILES)	normalized bacterial growth
17	C[C@@H]1O[C@@H](O[C@@H]2[C@@H](O)[C@H](O)[C@@H](CO)O[C@H]2c2c(O)cc(O)c3c(=O)cc(-c4ccc(O)cc4)oc23)[C@H](O)[C@H](O)[C@H]1O	1.09
18	CNc1ccccc1C(=O)N1CCc2c([nH]c3ccccc23)C1=O	0.857

# Remaining list, next part

row,Structure (SMILES),normalized bacterial growth
1,"CC(N)(Cc1ccc(O)c(O)c1)C(=O)O (racemic) [""()-3-(3,4-dihydroxyphenyl)-2-methyl-DL-alanine""]",0.966
2,CCN(CC)CCOCCOC(=O)C(CC)(CC)c1ccccc1,0.931
3,CCCOc1ccc(C(=O)OCCN(CC)CC)cc1N,0.745
4,CC1=C(/C=C/C(C)=C\C=C\C(C)=C\C(=O)O)C(C)(C)CCC1,0.94
5,"CN(C)CCC(c1ccc(Br)cc1)c1ccccn1 (single isomer, unassigned; (+)) [(+)-Brompheniramine maleate]",0.714
6,CC[C@@H](CO)NCCN[C@@H](CC)CO [Ethambutol dihydrochloride],0.846
7,CC[C@@H](CO)NCCN[C@@H](CC)CO,1.17
8,CC(=O)OCC(=O)[C@@]1(OC(C)=O)[C@@H](C)C[C@H]2[C@@H]3C[C@H](F)C4=CC(=O)C=C[C@]4(C)[C@@]3(F)[C@@H](O)C[C@@]21C [Diflorasone Diacetate],0.726
9,C=CCOC(Cn1ccnc1)c1ccc(Cl)cc1Cl (centres undefined) [Enilconazole],1.15
10,C[C@@H]1O[C@@H](OC[C@H]2O[C@@H](Oc3cc(O)c4c(=O)cc(-c5ccc(O)cc5)oc4c3)[C@H](O)[C@@H](O)[C@@H]2O)[C@H](O)[C@H](O)[C@H]1O,0.703
11,"C#CCn1c(=O)c2c(ncn2C)n(C)c1=O [""3,7-Dimethyl-1-propargylxanthine""]",0.936
12,COc1cc(O)ccc1C(C)=O,1.02
13,N#C/C(=C\c1ccc(O)c(O)c1)C(=O)NCc1ccccc1 [Tyrphostin AG 490],1.16
14,N=C(N)NCCN1CCCCCCC1,1.25
15,N=C(N)NCCN1CCCCCCC1 [Guanethidine sulfate],1.08
16,C#C[C@]1(O)CC[C@H]2[C@@H]3CCC4=CC(=O)CC[C@@H]4[C@H]3CC[C@@]21CC [Norgestrel-(-)-D],0.857
17,CC(CN(C)C)CN1c2ccccc2Sc2ccccc21 (centres undefined),0.903
18,CC(CN(C)C)CN1c2ccccc2Sc2ccccc21 (centres undefined) [Trimeprazine tartrate],0.722
19,CC1(C)[C@@H](OC(=O)CCC(=O)O)CC[C@]2(C)[C@H]3C(=O)C=C4[C@@H]5C[C@@](C)(C(=O)O)CC[C@]5(C)CC[C@@]4(C)[C@]3(C)CC[C@@H]12 [Carbenoxolone disodium salt],0.806
20,CC1(C)[C@@H](OC(=O)CCC(=O)O)CC[C@]2(C)[C@H]3C(=O)C=C4[C@@H]5C[C@@](C)(C(=O)O)CC[C@]5(C)CC[C@@]4(C)[C@]3(C)CC[C@@H]12,0.733
21,CC(C(=O)O)c1ccc(C(=O)c2ccccc2)s1 (centres undefined) [Tiaprofenic acid],1.27
22,CC(=O)N(CC(O)CN(C(C)=O)c1c(I)c(C(=O)NCC(O)CO)c(I)c(C(=O)NCC(O)CO)c1I)c1c(I)c(C(=O)NCC(O)CO)c(I)c(C(=O)NCC(O)CO)c1I (centres undefined) [Iodixanol],0.662
23,c1ccc(CN(CC2=NCCN2)c2ccccc2)cc1 [Antazoline hydrochloride],0.872
24,c1ccc(CN(CC2=NCCN2)c2ccccc2)cc1,1.06
25,Nc1ncnc2n[nH]c(Nc3ccc(F)cc3)c12,1.1
26,O=C(O)C1=CCCN(CCON=C(c2ccccc2)c2ccccc2)C1 [NO-711 hydrochloride],1.13
27,CCCN(CCc1ccccc1)C1CCc2c(O)cccc2C1 (centres undefined) [()-PPHT hydrochloride],1.05
